Measured data: PubChem BioAssay AID1508597 (Cure First, 2020)
The deposit covers about 2,100 reagents; this is a random part of them. 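Calls flag viability under 80% in either arm, not effects specific to rucaparib; the reference for percent is not stated.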 Not given: the 100% reference.

Test: 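Knock-downs altering ovarian cancer cell survival with or without PARP inhibitor rucaparib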 (primary screen)
Cells: human ovarian carcinoma lines grown from tumours: OCI-P5x (papillary serous) and OCI-C5x (clear cell)
Reagents: siRNA pool against human genes, 1.25 pmol siRNA per well
Time to read-out: 72 h or 96 h, depending on the cell culture
Challenge: rucaparib 20 µM (about IC30) or vehicle, present until read-out
Measurement: 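ATP luminescence measured at 72 or 96 h according to the culture, then normalised and expressed as percent viability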
Direction: viability, normalised: higher = more viable cells remaining
Call rule: 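Active when normalised viability falls below 80 percent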
Calls: active = viability under 80%; inactive = viability 80% or more

no.	gene	PubChem SID	rucaparib or vehicle	cell line	technical replicate	viability, normalised (%)	outcome
1	DHX33 (DEAH-box helicase 33)	SID405528214	Rucaparib	OCI-C5x (clear cell)	1	95.7	inactive
2	DHX33 (DEAH-box helicase 33)	SID405528214	Rucaparib	OCI-C5x (clear cell)	2	80.7	inactive
3	DHX33 (DEAH-box helicase 33)	SID405528214	Rucaparib	OCI-C5x (clear cell)	3	67.2	active
4	DHX33 (DEAH-box helicase 33)	SID405528214	Rucaparib	OCI-P5x (serous)	1	72.8	active
5	DHX33 (DEAH-box helicase 33)	SID405528214	Rucaparib	OCI-P5x (serous)	2	86.8	inactive
6	DHX33 (DEAH-box helicase 33)	SID405528214	Rucaparib	OCI-P5x (serous)	3	83.4	inactive
7	DHX33 (DEAH-box helicase 33)	SID405528214	Vehicle	OCI-C5x (clear cell)	1	60.3	active
8	DHX33 (DEAH-box helicase 33)	SID405528214	Vehicle	OCI-C5x (clear cell)	2	56.3	active
9	DHX33 (DEAH-box helicase 33)	SID405528214	Vehicle	OCI-C5x (clear cell)	3	56.3	active
10	DHX33 (DEAH-box helicase 33)	SID405528214	Vehicle	OCI-P5x (serous)	1	69.5	active
11	DHX33 (DEAH-box helicase 33)	SID405528214	Vehicle	OCI-P5x (serous)	2	76.9	active
12	DHX33 (DEAH-box helicase 33)	SID405528214	Vehicle	OCI-P5x (serous)	3	73.5	active
13	RLF (RLF zinc finger)	SID405527249	Rucaparib	OCI-C5x (clear cell)	1	43.1	active
14	RLF (RLF zinc finger)	SID405527249	Rucaparib	OCI-C5x (clear cell)	2	52	active
15	RLF (RLF zinc finger)	SID405527249	Rucaparib	OCI-C5x (clear cell)	3	43.4	active
16	RLF (RLF zinc finger)	SID405527249	Rucaparib	OCI-P5x (serous)	1	41.7	active
17	RLF (RLF zinc finger)	SID405527249	Rucaparib	OCI-P5x (serous)	2	35.9	active
18	RLF (RLF zinc finger)	SID405527249	Rucaparib	OCI-P5x (serous)	3	33.2	active
19	RLF (RLF zinc finger)	SID405527249	Vehicle	OCI-C5x (clear cell)	1	44.6	active
20	RLF (RLF zinc finger)	SID405527249	Vehicle	OCI-C5x (clear cell)	2	38.1	active
21	RLF (RLF zinc finger)	SID405527249	Vehicle	OCI-C5x (clear cell)	3	40	active
22	RLF (RLF zinc finger)	SID405527249	Vehicle	OCI-P5x (serous)	1	67.8	active
23	RLF (RLF zinc finger)	SID405527249	Vehicle	OCI-P5x (serous)	2	62.8	active
24	RLF (RLF zinc finger)	SID405527249	Vehicle	OCI-P5x (serous)	3	72.7	active
25	CARM1 (coactivator associated arginine methyltransferase 1)	SID405528065	Rucaparib	OCI-C5x (clear cell)	1	41.5	active
26	CARM1 (coactivator associated arginine methyltransferase 1)	SID405528065	Rucaparib	OCI-C5x (clear cell)	2	46.8	active
27	CARM1 (coactivator associated arginine methyltransferase 1)	SID405528065	Rucaparib	OCI-C5x (clear cell)	3	23.4	active
28	CARM1 (coactivator associated arginine methyltransferase 1)	SID405528065	Rucaparib	OCI-P5x (serous)	1	39.4	active
29	CARM1 (coactivator associated arginine methyltransferase 1)	SID405528065	Rucaparib	OCI-P5x (serous)	2	45.2	active
30	CARM1 (coactivator associated arginine methyltransferase 1)	SID405528065	Rucaparib	OCI-P5x (serous)	3	65.4	active
31	CARM1 (coactivator associated arginine methyltransferase 1)	SID405528065	Vehicle	OCI-C5x (clear cell)	1	22.6	active
32	CARM1 (coactivator associated arginine methyltransferase 1)	SID405528065	Vehicle	OCI-C5x (clear cell)	2	31.8	active
33	CARM1 (coactivator associated arginine methyltransferase 1)	SID405528065	Vehicle	OCI-C5x (clear cell)	3	27.1	active
34	CARM1 (coactivator associated arginine methyltransferase 1)	SID405528065	Vehicle	OCI-P5x (serous)	1	57.6	active
35	CARM1 (coactivator associated arginine methyltransferase 1)	SID405528065	Vehicle	OCI-P5x (serous)	2	37.8	active
36	CARM1 (coactivator associated arginine methyltransferase 1)	SID405528065	Vehicle	OCI-P5x (serous)	3	47.7	active
37	MED28 (mediator complex subunit 28)	SID405527003	Rucaparib	OCI-C5x (clear cell)	1	48.7	active
38	MED28 (mediator complex subunit 28)	SID405527003	Rucaparib	OCI-C5x (clear cell)	2	48.6	active
39	MED28 (mediator complex subunit 28)	SID405527003	Rucaparib	OCI-C5x (clear cell)	3	38.9	active
40	MED28 (mediator complex subunit 28)	SID405527003	Rucaparib	OCI-P5x (serous)	1	60.3	active
41	MED28 (mediator complex subunit 28)	SID405527003	Rucaparib	OCI-P5x (serous)	2	69.4	active
42	MED28 (mediator complex subunit 28)	SID405527003	Rucaparib	OCI-P5x (serous)	3	78.9	active
43	MED28 (mediator complex subunit 28)	SID405527003	Vehicle	OCI-C5x (clear cell)	1	33.8	active
44	MED28 (mediator complex subunit 28)	SID405527003	Vehicle	OCI-C5x (clear cell)	2	42.8	active
45	MED28 (mediator complex subunit 28)	SID405527003	Vehicle	OCI-C5x (clear cell)	3	37.2	active
46	MED28 (mediator complex subunit 28)	SID405527003	Vehicle	OCI-P5x (serous)	1	65.3	active
47	MED28 (mediator complex subunit 28)	SID405527003	Vehicle	OCI-P5x (serous)	2	74.5	active
48	MED28 (mediator complex subunit 28)	SID405527003	Vehicle	OCI-P5x (serous)	3	58.2	active
49	SUPT5H (SPT5 homolog, DSIF elongation factor subunit)	SID405526506	Rucaparib	OCI-C5x (clear cell)	1	61.9	active
50	SUPT5H (SPT5 homolog, DSIF elongation factor subunit)	SID405526506	Rucaparib	OCI-C5x (clear cell)	2	42.3	active
51	SUPT5H (SPT5 homolog, DSIF elongation factor subunit)	SID405526506	Rucaparib	OCI-C5x (clear cell)	3	50.9	active
52	SUPT5H (SPT5 homolog, DSIF elongation factor subunit)	SID405526506	Rucaparib	OCI-P5x (serous)	1	41.8	active
53	SUPT5H (SPT5 homolog, DSIF elongation factor subunit)	SID405526506	Rucaparib	OCI-P5x (serous)	2	46.5	active
54	SUPT5H (SPT5 homolog, DSIF elongation factor subunit)	SID405526506	Rucaparib	OCI-P5x (serous)	3	43.3	active
55	SUPT5H (SPT5 homolog, DSIF elongation factor subunit)	SID405526506	Vehicle	OCI-C5x (clear cell)	1	29.8	active
56	SUPT5H (SPT5 homolog, DSIF elongation factor subunit)	SID405526506	Vehicle	OCI-C5x (clear cell)	2	36.1	active
57	SUPT5H (SPT5 homolog, DSIF elongation factor subunit)	SID405526506	Vehicle	OCI-C5x (clear cell)	3	31.4	active
58	SUPT5H (SPT5 homolog, DSIF elongation factor subunit)	SID405526506	Vehicle	OCI-P5x (serous)	1	38.1	active
59	SUPT5H (SPT5 homolog, DSIF elongation factor subunit)	SID405526506	Vehicle	OCI-P5x (serous)	2	48.4	active
60	SUPT5H (SPT5 homolog, DSIF elongation factor subunit)	SID405526506	Vehicle	OCI-P5x (serous)	3	41.7	active

Part of the list above, reformatted:
gene | PubChem SID | rucaparib or vehicle | cell line | technical replicate | viability, normalised (%) | outcome
RLF (RLF zinc finger) | SID405527249 | Rucaparib | OCI-P5x (serous) | 1 | 41.7 | active
RLF (RLF zinc finger) | SID405527249 | Rucaparib | OCI-P5x (serous) | 2 | 35.9 | active
RLF (RLF zinc finger) | SID405527249 | Rucaparib | OCI-P5x (serous) | 3 | 33.2 | active
